This experiment has as its target Y-box binding protein 1 (human (endogenous in TNBC cells)) (UniProt P67809). Description: co-IP; endogenous co-IP from TNBC cell lysate (IP lysis buffer); IP with mouse anti-YBX1 at 4 °C overnight, mouse IgG as control, protein A/G beads, 6 washes; blot with rabbit anti-YBX1 and rabbit anti-RAF1.

No constants are given. Whether binding was seen depends on the method and setting. In cells and extracts the contact can be indirect. Some results given as binding are weak or reduced against the parent protein; the word gives no strength.

On to RAF1 (from UniProt P04049 1-648), for which the binding entry is “binds”.

(Values after PMC10770055.)
